This is an account of results in paper PMC11099042.

Sequences of proteins named here, by UniProt entry; tags and fusion partners are left off.
UniProt P48301: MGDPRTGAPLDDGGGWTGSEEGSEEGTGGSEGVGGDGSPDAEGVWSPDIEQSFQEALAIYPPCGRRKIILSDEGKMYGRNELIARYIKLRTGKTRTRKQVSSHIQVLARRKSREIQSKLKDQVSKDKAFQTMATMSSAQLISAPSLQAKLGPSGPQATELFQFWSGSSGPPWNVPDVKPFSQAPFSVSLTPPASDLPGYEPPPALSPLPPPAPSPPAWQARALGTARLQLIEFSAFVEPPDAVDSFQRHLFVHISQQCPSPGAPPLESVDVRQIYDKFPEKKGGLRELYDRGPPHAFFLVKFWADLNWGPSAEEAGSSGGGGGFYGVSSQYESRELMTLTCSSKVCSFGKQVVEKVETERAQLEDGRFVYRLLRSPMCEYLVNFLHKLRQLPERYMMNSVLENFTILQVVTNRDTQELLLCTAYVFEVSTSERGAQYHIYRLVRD

Results are given in words; binding and its absence hold for the method and conditions named. Binding seen in cells or lysates may run through a third protein. Some entries that bind do so weakly or less than the wild type.

This experiment has as its target TEAD2 (UniProt P48301). The experiment is described as follows: co-IP; FLAG- and HA-tagged TEAD2 co-expressed in cells; FLAG IP on M2 magnetic beads at 4 °C for 16 h; lysis buffer 20 mM Tris-HCl pH 7.5, 0.1% Triton X-100, 300 mM KCl, 5 mM EDTA; four washes with 500 mM KCl; immunoblot. (In general: In western blotting, separated proteins are transferred to a membrane and probed.)

Turning to TEAD2 (from UniProt P48301 1-445), the binding result was “binds”.
